The subject of series [1] is source genes in OC tumors compared to a panel of normal tissues. Kind of series: Expression profiling of genes encoding the peptides (RNAseq), expression scores. Also noted: species or system human; key: very highly over-expressed in OC tumors compared to a panel of normal tissues (+++); highly over-expressed in OC tumors compared to a panel of normal tissues (++); over-expressed in OC tumors compared to a panel of normal tissues (+). The conditions noted are these: expression score of source gene.

Series [2] relates to ovarian cancer tissue samples. Briefly: Identification of tumor associated peptides presented on the cell surface (HLA immunoprecipitation, LC-MS); presentation across tumor types. Also noted: species or system human. The conditions noted are these: tumor types on which the peptide was found presented (HLA immunoprecipitation, LC-MS); abbreviations in table footnote.

The record followed here is patent publication US20210340217A1, “NOVEL PEPTIDES AND COMBINATION OF PEPTIDES FOR USE IN IMMUNOTHERAPY AGAINST OVARIAN CANCER AND OTHER CANCERS” (Immatics Biotechnologies GmbH, priority 2017, published 2021).

For some of these results: For expression read-outs the peptide stands for its source gene, whose mRNA was measured; the gene is not named for every peptide.

Turning to “87: peptide found in CBX2 (gene looked up) (AVAPPTPASK; listed as Homo sapiens) [compound 87]”, the “Gene Expression” value in series [1] is reported as “++”. The “Peptide Presentation on tumor types” value in series [2] is “AML, CRC, GBC, MEL, NSCLC, OSCAR, RCC, SCLC, UEC”.
“433: peptide found in STAG2 (gene looked up) (SDSQVRAF; listed as Homo sapiens) [compound 433]”: the “Gene Expression” value in series [1] is “+++”. In series [2], the “Peptide Presentation on tumor types” value was “GBM, GC, HCC, HNSCC, NSCLC, OSCAR, RCC, SCLC, UEC”.
As for “411: peptide found in IDO1 (gene looked up) (LELPPILVY; listed as Homo sapiens) [compound 411]”, in series [1], the “Gene Expression” value is “+”. The “Peptide Presentation on tumor types” value in series [2] was “BRCA, CRC, GBC, GBM, GC, NHL, NSCLC, OSCAR, PRCA, SCLC, UBC, UEC”.
For the substance “115: peptide found in MMP12 (gene looked up) (FVDNQYWRY; listed as Homo sapiens) [compound 115]”, in series [1], the “Gene Expression” value is listed as “+++”. Moreover, in series [2], the “Peptide Presentation on tumor types” value was “BRCA, GBC, GC, GEJC, NSCLC,OSCAR, PACA, SCLC”.
As for “184: peptide found in EYA2 (gene looked up) (AELEALTDLW; listed as Homo sapiens) [compound 184]”, in series [1], the “Gene Expression” value is “++”. Moreover, the “Peptide Presentation on tumor types” value in series [2] is “NHL, NSCLC, NSCLC”.
For “315: peptide found in KLK8 (gene looked up) (SPRENFPDTL; listed as Homo sapiens) [compound 315]”, in that order: “+++” and “HNSCC”.
For the substance “197: peptide found in MSLN (gene looked up) (AEVLLPRLV; listed as Homo sapiens) [compound 197]”, the “Gene Expression” value in series [1] was “++”. Further, the “Peptide Presentation on tumor types” value in series [2] is given as “NSCLC, PACA, UEC”.
For “181: peptide found in CRABP2 (gene looked up) (GEGPKTSW; listed as Homo sapiens) [compound 181]”, the “Gene Expression” value in series [1] is recorded as “+”. Also, in series [2], the “Peptide Presentation on tumor types” value is recorded as “NSCLC”.
